# From US20250197451A1, “USE OF BIOACTIVE POLYPEPTIDE SYNTHESIZED ON BASIS OF KDM2B SEQUENCE IN NEURAL DIFFERENTIATION AND REGENERATION AND REPAIR OF MESENCHYMAL STEM CELLS” (CAPITAL MEDICAL UNIVERSITY SCHOOL OF STOMATOLOGY, priority 2021, published 2025)
# Amino acid sequences for entries named in this document (tags omitted).
# UniProt Q15910, whole entry, species assumed: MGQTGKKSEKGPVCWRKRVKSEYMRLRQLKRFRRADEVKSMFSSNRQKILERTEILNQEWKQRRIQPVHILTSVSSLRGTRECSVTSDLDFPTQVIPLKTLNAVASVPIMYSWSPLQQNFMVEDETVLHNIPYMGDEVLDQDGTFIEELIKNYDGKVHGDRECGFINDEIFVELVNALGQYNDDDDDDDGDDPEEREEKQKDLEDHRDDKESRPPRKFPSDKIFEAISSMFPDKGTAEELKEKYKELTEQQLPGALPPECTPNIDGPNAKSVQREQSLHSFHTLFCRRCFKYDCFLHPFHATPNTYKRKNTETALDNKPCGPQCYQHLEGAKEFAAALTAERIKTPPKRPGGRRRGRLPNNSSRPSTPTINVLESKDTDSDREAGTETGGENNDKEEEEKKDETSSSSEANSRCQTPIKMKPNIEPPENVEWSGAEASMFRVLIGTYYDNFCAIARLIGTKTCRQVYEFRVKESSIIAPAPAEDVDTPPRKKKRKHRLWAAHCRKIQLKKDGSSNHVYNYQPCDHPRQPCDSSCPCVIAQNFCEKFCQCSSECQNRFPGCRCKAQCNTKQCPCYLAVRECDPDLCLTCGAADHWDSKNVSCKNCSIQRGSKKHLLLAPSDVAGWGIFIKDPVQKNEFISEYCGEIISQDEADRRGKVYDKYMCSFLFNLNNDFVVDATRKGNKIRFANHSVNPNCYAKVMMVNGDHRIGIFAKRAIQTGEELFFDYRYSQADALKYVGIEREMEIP
# Some entries share one result that the patent states for a list of compounds.
# Target: EZH2 protein (Homo sapiens, UniProt Q15910)
# Assay: KDM2B polypeptide microarray immune-hybridization with biotin-labelled EZH2 protein
# Type: binding
# Source text: […]
row,Substance,binding site of KDM2B to EZH2 (positive / negative)
1,A E K Q K K K T V I Y T K C F (AEKQKKKTVIYTKCF; synthesized KDM2B peptide) [peptide 5],positive (the points with an optical density percentage of more than 30% on the polypeptide membrane and also with an optical density percentage of less than 30% on the negative membrane were defined as positive colored points)
2,A R R R R T R C R K C E A C L (ARRRRTRCRKCEACL; synthesized KDM2B peptide) [peptide 122],positive (the points with an optical density percentage of more than 30% on the polypeptide membrane and also with an optical density percentage of less than 30% on the negative membrane were defined as positive colored points)
3,C I A P V L P H T A V C L V C (CIAPVLPHTAVCLVC; synthesized KDM2B peptide) [peptide 131],positive (the points with an optical density percentage of more than 30% on the polypeptide membrane and also with an optical density percentage of less than 30% on the negative membrane were defined as positive colored points)
4,C N E I I H P G C L K I K E S (CNEIIHPGCLKIKES; synthesized KDM2B peptide) [peptide 139],positive (the points with an optical density percentage of more than 30% on the polypeptide membrane and also with an optical density percentage of less than 30% on the negative membrane were defined as positive colored points)
5,D N K E G Q E P A K R R S E C (DNKEGQEPAKRRSEC; synthesized KDM2B peptide) [peptide 152],positive (the points with an optical density percentage of more than 30% on the polypeptide membrane and also with an optical density percentage of less than 30% on the negative membrane were defined as positive colored points)
6,E G V V N D E L P N C W E C P (EGVVNDELPNCWECP; synthesized KDM2B peptide) [peptide 142],positive (the points with an optical density percentage of more than 30% on the polypeptide membrane and also with an optical density percentage of less than 30% on the negative membrane were defined as positive colored points)
7,L M S V K G C F T D F H I D F (LMSVKGCFTDFHIDF; synthesized KDM2B peptide) [peptide 47],positive (the points with an optical density percentage of more than 30% on the polypeptide membrane and also with an optical density percentage of less than 30% on the negative membrane were defined as positive colored points)
8,L P H T A V C L V C G E A G K (LPHTAVCLVCGEAGK; synthesized KDM2B peptide) [peptide 132],positive (the points with an optical density percentage of more than 30% on the polypeptide membrane and also with an optical density percentage of less than 30% on the negative membrane were defined as positive colored points)
9,L R D L V L S G C S W I A V S (LRDLVLSGCSWIAVS; synthesized KDM2B peptide) [peptide 231],positive (the points with an optical density percentage of more than 30% on the polypeptide membrane and also with an optical density percentage of less than 30% on the negative membrane were defined as positive colored points)
10,L S G C S W I A V S A L C S S (LSGCSWIAVSALCSS; synthesized KDM2B peptide) [peptide 232],positive (the points with an optical density percentage of more than 30% on the polypeptide membrane and also with an optical density percentage of less than 30% on the negative membrane were defined as positive colored points)
11,Q E P A K R R S E C E E A P R (QEPAKRRSECEEAPR; synthesized KDM2B peptide) [peptide 153],positive (the points with an optical density percentage of more than 30% on the polypeptide membrane and also with an optical density percentage of less than 30% on the negative membrane were defined as positive colored points)
12,Q K M N R D N K E G Q E P A K (QKMNRDNKEGQEPAK; synthesized KDM2B peptide) [peptide 151],positive (the points with an optical density percentage of more than 30% on the polypeptide membrane and also with an optical density percentage of less than 30% on the negative membrane were defined as positive colored points)
13,T R C R K C E A C L R T E C G (TRCRKCEACLRTECG; synthesized KDM2B peptide) [peptide 123],positive (the points with an optical density percentage of more than 30% on the polypeptide membrane and also with an optical density percentage of less than 30% on the negative membrane were defined as positive colored points)
14,V K K Y C L M S V K G C F T D (VKKYCLMSVKGCFTD; synthesized KDM2B peptide) [peptide 46],positive (the points with an optical density percentage of more than 30% on the polypeptide membrane and also with an optical density percentage of less than 30% on the negative membrane were defined as positive colored points)
15,W I A V S A L C S S S C P L L (WIAVSALCSSSCPLL; synthesized KDM2B peptide) [peptide 233],positive (the points with an optical density percentage of more than 30% on the polypeptide membrane and also with an optical density percentage of less than 30% on the negative membrane were defined as positive colored points)
